Results: the supplement of paper PMC10849652
Some of the results follow.

Sequences of proteins named here, by UniProt entry; tags and fusion partners are left off. A change or cut given only in a name is not applied to a line headed by its entry.
UniProt Q9NS69: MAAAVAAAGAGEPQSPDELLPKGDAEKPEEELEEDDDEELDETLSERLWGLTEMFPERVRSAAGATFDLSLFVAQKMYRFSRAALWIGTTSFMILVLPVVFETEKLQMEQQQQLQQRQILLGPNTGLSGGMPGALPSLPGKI
UniProt Q9Y5R8, whole entry, looked up: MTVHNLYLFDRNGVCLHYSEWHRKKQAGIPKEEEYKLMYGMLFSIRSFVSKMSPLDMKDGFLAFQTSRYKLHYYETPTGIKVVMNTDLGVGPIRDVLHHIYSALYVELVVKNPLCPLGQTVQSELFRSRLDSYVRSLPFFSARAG
UniProt O95985: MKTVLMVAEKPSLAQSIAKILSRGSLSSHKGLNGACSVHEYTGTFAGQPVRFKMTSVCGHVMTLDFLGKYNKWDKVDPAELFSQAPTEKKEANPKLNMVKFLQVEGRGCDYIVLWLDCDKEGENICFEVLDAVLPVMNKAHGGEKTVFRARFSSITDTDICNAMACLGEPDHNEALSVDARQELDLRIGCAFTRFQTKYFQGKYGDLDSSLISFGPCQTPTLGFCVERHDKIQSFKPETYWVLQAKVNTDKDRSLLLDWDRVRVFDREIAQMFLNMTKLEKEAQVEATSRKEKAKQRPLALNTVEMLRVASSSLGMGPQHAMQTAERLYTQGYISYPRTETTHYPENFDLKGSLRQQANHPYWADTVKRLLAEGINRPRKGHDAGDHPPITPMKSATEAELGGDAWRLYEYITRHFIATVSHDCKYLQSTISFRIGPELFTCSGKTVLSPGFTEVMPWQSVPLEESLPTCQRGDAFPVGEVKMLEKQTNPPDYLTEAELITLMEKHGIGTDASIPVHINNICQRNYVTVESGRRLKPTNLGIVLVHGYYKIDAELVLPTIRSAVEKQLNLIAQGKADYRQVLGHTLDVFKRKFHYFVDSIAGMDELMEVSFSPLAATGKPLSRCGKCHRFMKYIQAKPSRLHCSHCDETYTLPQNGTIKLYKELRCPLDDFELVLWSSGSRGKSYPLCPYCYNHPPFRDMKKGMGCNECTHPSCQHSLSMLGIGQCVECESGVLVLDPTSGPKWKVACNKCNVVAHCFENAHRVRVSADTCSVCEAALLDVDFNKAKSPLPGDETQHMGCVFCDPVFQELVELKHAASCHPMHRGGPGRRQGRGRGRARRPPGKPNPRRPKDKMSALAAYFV
UniProt P51580: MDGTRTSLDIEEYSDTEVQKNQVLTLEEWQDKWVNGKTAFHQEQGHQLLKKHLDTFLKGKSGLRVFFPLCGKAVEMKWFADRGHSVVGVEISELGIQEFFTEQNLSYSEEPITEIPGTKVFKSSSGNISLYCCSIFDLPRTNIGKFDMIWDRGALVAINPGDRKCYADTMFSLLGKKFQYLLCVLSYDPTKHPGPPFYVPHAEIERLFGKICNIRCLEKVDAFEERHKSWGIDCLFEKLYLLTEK
UniProt Q96QT4: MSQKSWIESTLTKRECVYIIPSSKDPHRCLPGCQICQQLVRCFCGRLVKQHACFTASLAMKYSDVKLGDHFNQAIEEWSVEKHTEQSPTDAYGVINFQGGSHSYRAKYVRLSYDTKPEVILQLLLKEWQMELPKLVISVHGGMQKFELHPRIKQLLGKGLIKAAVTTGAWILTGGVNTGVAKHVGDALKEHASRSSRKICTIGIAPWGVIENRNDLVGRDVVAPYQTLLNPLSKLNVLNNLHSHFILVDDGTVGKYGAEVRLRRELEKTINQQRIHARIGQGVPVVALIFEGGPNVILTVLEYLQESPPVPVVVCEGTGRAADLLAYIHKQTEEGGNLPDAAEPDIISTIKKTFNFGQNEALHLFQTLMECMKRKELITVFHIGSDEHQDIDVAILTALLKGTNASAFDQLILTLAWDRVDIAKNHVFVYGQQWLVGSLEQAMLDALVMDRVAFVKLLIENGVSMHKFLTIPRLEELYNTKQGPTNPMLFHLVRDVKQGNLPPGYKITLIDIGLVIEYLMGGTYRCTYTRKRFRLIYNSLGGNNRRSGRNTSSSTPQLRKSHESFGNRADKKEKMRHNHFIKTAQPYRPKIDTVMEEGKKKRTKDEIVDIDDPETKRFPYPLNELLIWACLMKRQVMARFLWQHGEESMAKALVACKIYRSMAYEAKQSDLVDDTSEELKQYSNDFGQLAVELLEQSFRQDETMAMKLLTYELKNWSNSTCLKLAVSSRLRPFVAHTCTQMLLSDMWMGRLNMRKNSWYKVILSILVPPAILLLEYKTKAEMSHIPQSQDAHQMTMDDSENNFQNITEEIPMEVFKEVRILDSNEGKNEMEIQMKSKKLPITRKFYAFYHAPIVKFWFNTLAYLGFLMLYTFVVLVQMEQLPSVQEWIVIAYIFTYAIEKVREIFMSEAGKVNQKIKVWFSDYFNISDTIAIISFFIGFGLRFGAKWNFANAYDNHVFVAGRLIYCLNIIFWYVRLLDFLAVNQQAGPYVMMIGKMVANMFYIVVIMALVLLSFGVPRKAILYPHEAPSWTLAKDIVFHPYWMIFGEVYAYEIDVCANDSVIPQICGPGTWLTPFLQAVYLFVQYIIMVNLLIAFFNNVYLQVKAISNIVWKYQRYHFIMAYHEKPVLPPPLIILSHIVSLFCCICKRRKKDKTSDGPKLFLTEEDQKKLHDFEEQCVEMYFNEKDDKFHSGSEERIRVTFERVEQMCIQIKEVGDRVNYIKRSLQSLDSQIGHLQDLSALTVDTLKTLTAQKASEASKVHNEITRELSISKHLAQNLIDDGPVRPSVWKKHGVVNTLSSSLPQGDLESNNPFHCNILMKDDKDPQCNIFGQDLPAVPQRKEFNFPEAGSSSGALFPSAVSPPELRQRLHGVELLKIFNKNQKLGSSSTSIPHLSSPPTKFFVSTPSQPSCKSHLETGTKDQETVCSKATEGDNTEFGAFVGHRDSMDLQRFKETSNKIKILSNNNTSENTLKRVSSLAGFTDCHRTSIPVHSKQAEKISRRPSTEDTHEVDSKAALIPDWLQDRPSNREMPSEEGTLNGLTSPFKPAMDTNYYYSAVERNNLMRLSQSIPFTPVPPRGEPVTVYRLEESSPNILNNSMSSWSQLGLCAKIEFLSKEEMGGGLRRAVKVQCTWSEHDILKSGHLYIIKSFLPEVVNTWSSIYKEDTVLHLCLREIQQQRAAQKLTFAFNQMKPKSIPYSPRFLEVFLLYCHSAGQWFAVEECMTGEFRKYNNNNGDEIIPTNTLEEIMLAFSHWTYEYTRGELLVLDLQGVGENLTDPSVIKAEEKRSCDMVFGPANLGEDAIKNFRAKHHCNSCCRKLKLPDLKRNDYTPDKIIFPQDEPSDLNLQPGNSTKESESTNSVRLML
UniProt Q12933: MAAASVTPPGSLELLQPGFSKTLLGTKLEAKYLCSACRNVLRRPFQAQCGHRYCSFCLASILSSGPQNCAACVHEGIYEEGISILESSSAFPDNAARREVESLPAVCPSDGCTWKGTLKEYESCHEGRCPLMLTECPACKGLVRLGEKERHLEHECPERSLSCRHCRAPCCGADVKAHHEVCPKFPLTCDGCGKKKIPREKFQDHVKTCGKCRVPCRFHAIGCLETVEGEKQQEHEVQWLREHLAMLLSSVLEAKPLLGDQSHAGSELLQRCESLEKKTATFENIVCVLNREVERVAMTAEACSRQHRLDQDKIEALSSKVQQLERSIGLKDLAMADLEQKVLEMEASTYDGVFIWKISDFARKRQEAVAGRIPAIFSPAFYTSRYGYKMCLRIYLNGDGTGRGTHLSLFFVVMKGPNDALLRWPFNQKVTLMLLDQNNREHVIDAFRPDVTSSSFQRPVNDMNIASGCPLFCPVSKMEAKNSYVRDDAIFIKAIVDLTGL
UniProt Q8WVT3: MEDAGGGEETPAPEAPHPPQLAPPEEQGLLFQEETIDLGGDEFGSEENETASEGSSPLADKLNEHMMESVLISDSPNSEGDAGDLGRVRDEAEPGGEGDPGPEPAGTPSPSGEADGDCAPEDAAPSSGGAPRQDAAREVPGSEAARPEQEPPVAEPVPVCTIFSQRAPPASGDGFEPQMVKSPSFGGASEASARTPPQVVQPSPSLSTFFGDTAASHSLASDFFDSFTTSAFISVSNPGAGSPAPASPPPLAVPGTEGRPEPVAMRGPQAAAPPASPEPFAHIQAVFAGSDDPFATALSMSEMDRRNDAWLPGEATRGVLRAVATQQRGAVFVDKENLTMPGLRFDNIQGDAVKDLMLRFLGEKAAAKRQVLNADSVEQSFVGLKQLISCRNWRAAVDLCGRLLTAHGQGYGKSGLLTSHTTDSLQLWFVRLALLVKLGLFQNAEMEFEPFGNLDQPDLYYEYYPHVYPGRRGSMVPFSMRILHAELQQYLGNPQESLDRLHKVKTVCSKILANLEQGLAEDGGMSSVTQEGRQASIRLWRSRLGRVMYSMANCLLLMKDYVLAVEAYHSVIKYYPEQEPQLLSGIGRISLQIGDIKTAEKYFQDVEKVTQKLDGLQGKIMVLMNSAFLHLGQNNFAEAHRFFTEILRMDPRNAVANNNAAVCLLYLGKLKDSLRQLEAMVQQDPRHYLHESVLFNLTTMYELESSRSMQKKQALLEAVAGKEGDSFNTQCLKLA
UniProt P29144: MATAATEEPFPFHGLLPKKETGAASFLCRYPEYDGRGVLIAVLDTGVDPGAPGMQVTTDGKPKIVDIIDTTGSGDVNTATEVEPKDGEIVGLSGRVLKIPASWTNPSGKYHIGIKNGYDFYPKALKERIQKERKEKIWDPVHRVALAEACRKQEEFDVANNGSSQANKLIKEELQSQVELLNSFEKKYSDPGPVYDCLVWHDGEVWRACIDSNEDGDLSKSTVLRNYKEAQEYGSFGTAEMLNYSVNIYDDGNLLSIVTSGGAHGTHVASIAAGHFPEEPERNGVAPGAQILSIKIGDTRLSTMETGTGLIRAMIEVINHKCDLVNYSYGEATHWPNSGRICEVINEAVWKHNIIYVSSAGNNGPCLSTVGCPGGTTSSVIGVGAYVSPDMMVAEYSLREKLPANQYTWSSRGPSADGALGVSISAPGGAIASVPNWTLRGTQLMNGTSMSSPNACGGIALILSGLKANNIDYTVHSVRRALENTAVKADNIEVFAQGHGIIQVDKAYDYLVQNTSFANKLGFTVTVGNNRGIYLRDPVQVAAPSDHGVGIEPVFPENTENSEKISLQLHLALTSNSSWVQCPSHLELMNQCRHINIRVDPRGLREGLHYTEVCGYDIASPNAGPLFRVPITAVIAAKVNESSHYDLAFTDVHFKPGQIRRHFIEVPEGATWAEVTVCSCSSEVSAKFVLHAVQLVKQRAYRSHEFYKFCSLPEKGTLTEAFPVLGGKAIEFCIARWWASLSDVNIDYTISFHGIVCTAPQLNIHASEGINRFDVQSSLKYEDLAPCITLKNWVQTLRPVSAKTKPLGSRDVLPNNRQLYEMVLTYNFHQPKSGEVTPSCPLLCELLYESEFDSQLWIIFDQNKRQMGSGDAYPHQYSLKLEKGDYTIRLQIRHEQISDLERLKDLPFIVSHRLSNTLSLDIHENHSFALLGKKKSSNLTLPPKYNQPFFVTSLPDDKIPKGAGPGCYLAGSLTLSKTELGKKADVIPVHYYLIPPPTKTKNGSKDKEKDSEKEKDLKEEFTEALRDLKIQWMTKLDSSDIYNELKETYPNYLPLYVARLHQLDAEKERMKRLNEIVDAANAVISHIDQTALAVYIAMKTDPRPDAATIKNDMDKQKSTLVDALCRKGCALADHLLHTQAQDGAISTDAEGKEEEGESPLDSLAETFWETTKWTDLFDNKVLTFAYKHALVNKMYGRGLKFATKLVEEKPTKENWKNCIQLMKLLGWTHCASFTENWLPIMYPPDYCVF
UniProt Q53FA7: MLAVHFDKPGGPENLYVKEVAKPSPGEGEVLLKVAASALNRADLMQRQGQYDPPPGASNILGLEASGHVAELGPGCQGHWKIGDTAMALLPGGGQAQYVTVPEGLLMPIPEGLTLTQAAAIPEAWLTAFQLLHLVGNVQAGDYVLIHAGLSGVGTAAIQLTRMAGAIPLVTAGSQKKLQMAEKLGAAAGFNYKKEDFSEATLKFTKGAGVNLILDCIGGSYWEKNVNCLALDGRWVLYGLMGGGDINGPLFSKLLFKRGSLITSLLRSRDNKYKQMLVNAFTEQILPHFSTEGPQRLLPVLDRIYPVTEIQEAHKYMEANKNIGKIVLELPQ
UniProt Q96Q11: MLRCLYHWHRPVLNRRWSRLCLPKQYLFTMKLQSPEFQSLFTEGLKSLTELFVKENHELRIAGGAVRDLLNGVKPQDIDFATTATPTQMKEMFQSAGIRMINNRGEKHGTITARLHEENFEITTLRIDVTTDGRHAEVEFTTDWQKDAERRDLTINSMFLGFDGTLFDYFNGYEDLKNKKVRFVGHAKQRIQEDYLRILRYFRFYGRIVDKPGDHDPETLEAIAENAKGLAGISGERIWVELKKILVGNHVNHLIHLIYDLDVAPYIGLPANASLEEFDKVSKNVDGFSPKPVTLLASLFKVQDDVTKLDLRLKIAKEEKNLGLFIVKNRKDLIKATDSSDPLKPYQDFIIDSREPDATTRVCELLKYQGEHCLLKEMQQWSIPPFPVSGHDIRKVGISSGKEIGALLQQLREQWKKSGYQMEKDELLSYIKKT

Compound: C1=CC=C(C=C1)[C@H](COC2=CC3=C(C=C2)NC(=O)N3)NC(=O)C4=CC=CN(C4=O)CC5=CC(=C(C=C5)F)F
Assay: log2 fold change, soluble protein after heating vs DMSO (PISA); higher = thermal stabilisation; K562 cells, 10 uM, 30 min; active = over 0.2 and 3.5 SD of the protein, either way, in both replicates (recomputed)
Method in brief: (§1)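 K562 cells at 2×10^6 cells/mL were exposed to 10 μM compound for 30 min, then aliquots were heated for 3 min across 48°C-58°C, pooled, and extracted in PBS containing 0.5% NP-40 at 4°C. The supernatant after 21,000xg for 90 min was taken as soluble protein and measured by TMTpro 16plex LC-MS/MS with channel sums equalised. Thermal stability is reported relative to control samples, with values from duplicates. Fold changes are given on a log2 scale.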

Target | log2 fold change
TPM1 (UniProt H7BYY1) | inactive: 0
TOR1AIP2 (UniProt Q9H496) | inactive: 0.03
TOMM22 (UniProt Q9NS69) | inactive: -0.023
TNK2 isoform 3 (UniProt Q07912) | inactive: -0.033
TRAPPC1 (UniProt Q9Y5R8) | inactive: -0.072
TRAPPC11 (UniProt Q7Z392) | inactive: 0.004
TPP2 (UniProt Q5VZU9) | inactive: 0.093
TPM4, A0A2R8Y5V9 | inactive: 0.016
TREML2 (UniProt Q5T2D2) | inactive: -0.043
TOP3B (UniProt O95985) | inactive: -0.008
TPMT (UniProt P51580) | inactive: -0.025
TRPM7 (UniProt Q96QT4) | inactive: -0.15
TRAF2 (UniProt Q12933) | inactive: -0.025
TRAPPC12 (UniProt Q8WVT3) | inactive: -0.099
TPP2 (UniProt P29144) | inactive: 0.06
TROAP (UniProt Q12815) | inactive: 0.045

Compound: CC1=C(SC2=C1C(=N[C@H](C3=NN=C(N32)C)CC(=O)N)C4=CC=C(C=C4)Cl)C
Assay: as above
Method in brief: as §1

Target | log2 fold change
TOR1AIP1 isoform 3 (UniProt Q5JTV8) | inactive: 0.013
TSC22D1 (UniProt Q15714) | inactive: 0.033
TPT1 (UniProt P13693) | inactive: 0.067
TRIP13 (UniProt Q15645) | inactive: 0.008
TP53BP2 isoform 3 (UniProt Q13625) | inactive: -0.042
TP53I3 (UniProt Q53FA7) | inactive: 0
TNIK isoform 3 (UniProt Q9UKE5) | inactive: 0.015
TSC22D2 (UniProt O75157) | inactive: 0.018
TRAPPC4 (UniProt Q9Y296) | inactive: 0.032
TOR4A (UniProt Q9NXH8) | inactive: -0.046
TOMM20 (UniProt Q15388) | inactive: 0.025
TRNT1 (UniProt Q96Q11) | inactive: 0.052
TRMT2A (UniProt Q8IZ69) | inactive: -0.042
TRUB1 (UniProt Q8WWH5) | inactive: 0.026
TRMT112 (UniProt Q9UI30) | inactive: 0.037
TRPV2 (UniProt Q9Y5S1) | inactive: 0.053
TRIP4 (UniProt Q15650) | inactive: -0.028

Target | log2 fold change
TRAP1 (UniProt Q12931) | inactive: 0.01
TRMT1 (UniProt Q9NXH9) | inactive: 0.004
TRIM44 (UniProt Q96DX7) | inactive: 0.008
TOP1 (UniProt P11387) | inactive: -0.146
TPM1 (UniProt H7BYY1) | inactive: 0.023
TOMM22 (UniProt Q9NS69) | inactive: 0.054
TRAPPC1 (UniProt Q9Y5R8) | inactive: 0.122
TRAPPC11 (UniProt Q7Z392) | inactive: 0.117
TPP2 (UniProt Q5VZU9) | inactive: -0.136
TPM4, A0A2R8Y5V9 | inactive: -0.008
TOP3B (UniProt O95985) | inactive: -0.08
TPMT (UniProt P51580) | inactive: 0.043
TRPM7 (UniProt Q96QT4) | inactive: 0.006
TRAF2 (UniProt Q12933) | inactive: 0.028
TRAPPC12 (UniProt Q8WVT3) | inactive: 0.014
TPP2 (UniProt P29144) | inactive: -0.209

Compound: CC1=C2C(=CC=C1)N=C(N(C2=O)C3=CC=CC=C3C)CN4C=NC5=C(N=CN=C54)N
Assay: as above
Method in brief: as §1

Target | log2 fold change
TOR1AIP1 isoform 3 (UniProt Q5JTV8) | inactive: 0.014
TSC22D1 (UniProt Q15714) | inactive: 0.016
TPT1 (UniProt P13693) | inactive: 0.022
TRIP13 (UniProt Q15645) | inactive: 0.011
TP53BP2 isoform 3 (UniProt Q13625) | inactive: 0.137
TP53I3 (UniProt Q53FA7) | inactive: -0.05
TNIK isoform 3 (UniProt Q9UKE5) | inactive: 0.042
TSC22D2 (UniProt O75157) | inactive: -0.032
TRAPPC4 (UniProt Q9Y296) | inactive: 0.056
TOR4A (UniProt Q9NXH8) | inactive: -0.081
TOMM20 (UniProt Q15388) | inactive: 0.028
TRNT1 (UniProt Q96Q11) | inactive: 0.082
TRMT2A (UniProt Q8IZ69) | inactive: -0.026
TRUB1 (UniProt Q8WWH5) | inactive: -0.016
TRMT112 (UniProt Q9UI30) | inactive: 0.074
TRPV2 (UniProt Q9Y5S1) | inactive: 0.062
TRIP4 (UniProt Q15650) | inactive: 0.047

Target | log2 fold change
TRAP1 (UniProt Q12931) | inactive: -0.024
TRMT1 (UniProt Q9NXH9) | inactive: 0.007
TRIM44 (UniProt Q96DX7) | inactive: -0.002
TOP1 (UniProt P11387) | inactive: -0.284
TPM1 (UniProt H7BYY1) | inactive: -0.109
TOMM22 (UniProt Q9NS69) | inactive: -0.021
TRAPPC1 (UniProt Q9Y5R8) | inactive: 0.063
TRAPPC11 (UniProt Q7Z392) | inactive: 0.077
TPP2 (UniProt Q5VZU9) | inactive: -0.003
TPM4, A0A2R8Y5V9 | inactive: -0.008
TOP3B (UniProt O95985) | inactive: -0.036
TPMT (UniProt P51580) | inactive: 0.011
TRPM7 (UniProt Q96QT4) | inactive: 0.004
TRAF2 (UniProt Q12933) | inactive: -0.029
TRAPPC12 (UniProt Q8WVT3) | inactive: 0.077
TPP2 (UniProt P29144) | inactive: -0.127
